Reference: patent US20050158323A1, “Methods of killing tumor cells by targeting internal antigens exposed on apoptotic tumor cells” (Vaccinex, Inc., priority 2003, published 2005)
Results are given in words; binding and its absence hold for the method and conditions named. Some entries that bind do so weakly or less than the wild type. For part of these data: Tags and fused reporters may be left off the sequences shown.

Columns and labels:
[1] = biological target: T1, recombinant C35 protein (human) (UniProt Q9BRT3); test: ELISA and Western blot
T1 sequence: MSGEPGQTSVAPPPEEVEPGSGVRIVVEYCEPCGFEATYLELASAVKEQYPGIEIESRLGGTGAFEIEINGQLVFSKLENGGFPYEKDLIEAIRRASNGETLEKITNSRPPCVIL

[2] = biological target: T2, 6× His-tagged recombinant human C35 (rhC35) (human) (UniProt Q9BRT3); test: Western blot of Lys-C digested rhC35, 1 µg/ml antibody
T2 sequence: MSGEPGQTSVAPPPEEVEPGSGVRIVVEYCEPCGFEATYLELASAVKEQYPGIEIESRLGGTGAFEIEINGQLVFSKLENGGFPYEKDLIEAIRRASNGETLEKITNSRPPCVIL

B1: 1F2 murine anti-C35 monoclonal antibody (antibody, V domains shown)
VH: DVQLQESGPGLVKPSQSLSLTCSVTGYSITSGYFWNWIRQFPGNKLEWMGYISYDGSNNSNPSLKNRISFTRDTSKNQFFLKFNSVTTDDSAAYYCTRGTTGFAYWGQGTLVTVSA
VL: QIVLTQSPAIMSASPGEKVTISCSASSSVSYMNWYQQKPGSSPKPWIYHTSNLASGVPARFSGSGSGTSYSLTISSMEAEDAATYYCQQYHSYPPTFGGGTKLEIK
With B1 the binding [1] was “binds” and the binding [2] was “binds”.

B2: 1B3 murine anti-C35 monoclonal antibody (antibody, V domains shown)
VH: EVQLQESGPSLVKPSQTLSLTCSVTGDSITSGYWNWIRKFPGNKLEYVGYISYSGGTYYNPSLKSRISITRDTSKNHYYLQLNSVTTEDTATYYCARGAYYGGAFFPYFDVWGAGTTVTVSS
VL: DVQITQSPSFLAASPGETITINCRASKYISKHLVWYQEKPGETKKLLIYSGSTLQSGLPSRFSGSGSGTDFTLTISSLEPEDFAMYYCQQHNEYPLTFGAGTKLELK
B2 was tested, and the binding [1] was “binds”.
